“And” between values parts separate entries of the source, which are not always exact repeats. Identical values can stand only once. At least one read-out could not be matched to a standard name with certainty.
System: Collagen-Induced Arthritis
Assay: Collagen-Induced Arthritis Assay, hindpaw volume
Type: in vivo, rat (inbred Lewis male)
Settings: oral gavage, 5 days per week, 28 or 30 days, rats
Protocol: Collagen-Induced Arthritis Assay
Type II collagen was isolated from bovine articular cartilage by the method of Strawich and Nimni Biochemistry, 10, 3905 (1971)]. The collagen was dissolved in 0.1 M acetic acid and stored at -20° C. Type II collagen solution was diluted to 2 mg/ml concentration and emulsified thoroughly with an equal volume of incomplete Freund's adjuvant (ICFA). The emulsion containing approximately 0.5 mg of collagen was injected intradermally on day 0 to groups of 6 inbred Lewis male rats (Charles River Breeders; 170-200 g) at various sites in the dorsal area. The hindpaw volumes of each rat were measured and recorded three times a week throughout the test period to assess the inflammatory reaction. The test group animals received compounds under test as suspensions in carboxymethylcellulose vehicle, by oral gavage, 5 days per week (Monday-Friday), beginning on day 1. Control animals received vehicle without a test compound. […] The cellular response or delayed-type hypersensitivity response to type II collagen was measured by the radiometric ear index assay [Kostiala, Immunology, 33, 561 (1977)]. In certain experiments, the bone damage occurring because of immunization with type II collagen and the effects of drugs were determined from the radiographs of the hindpaws of two or three representative animals from each group. […]
The % inhibition was calculated according to the following formula: [formula] where Vt is the hindpaw volume of a compound-treated animal (test group), Vc is the hindpaw volume of a non-compound-treated animal (carbomethoxycellulose vehicle only--the control group), and Vv is the hindpaw volume of a vehicle (carbomethoxycellulose) treated animal which received ICFA with no collagen II (negative control group).

Row | Structure (SMILES) | % inhibition of Collagen-Induced Arthritis (10 mg/kg) [%] | % inhibition of Collagen-Induced Arthritis (50 mg/kg) | % inhibition of Collagen-Induced Arthritis (50 mg/kg, listed as 26**)
1 | CCCc1c(OCCCCc2nnn[nH]2)ccc(C(=O)c2ccccc2OC)c1O [Example 23, (2-Hydroxy-3-propyl-4-[4-(1H-tetrazol-5-yl)butoxy]phenyl)(2-methoxyphenyl)methanone] | 65 |  | 
2 | CCCc1c(OCCCCc2nnn[nH]2)ccc(C(=O)c2ccccc2O)c1O [Example 26, (2-Hydroxyphenyl)(2-hydroxy-3-propyl-4[4-(1H-tetrazol-5-yl)butoxy]phenyl)methanone] |  | 67% and 49% | 100% and 95%

Reference: patent US4801616A, “Diphenylmethanone compounds and anti-inflammatory use thereof” (Eli Lilly and Company, priority 1986, dated 1989)
